Results published in publication doi:10.1101/2023.11.13.566796.
These are yes or no findings as the source states them, for the method shown. In cells and extracts the contact can be indirect. Some results given as binding are weak or reduced against the parent protein; the word gives no strength. For some of these results: Tags and fused reporters may be left off the sequences shown.

Amino acid sequences for entries named in this document (tags omitted). A change or cut given only in a name is not applied to a line headed by its entry.
UniProt P49024: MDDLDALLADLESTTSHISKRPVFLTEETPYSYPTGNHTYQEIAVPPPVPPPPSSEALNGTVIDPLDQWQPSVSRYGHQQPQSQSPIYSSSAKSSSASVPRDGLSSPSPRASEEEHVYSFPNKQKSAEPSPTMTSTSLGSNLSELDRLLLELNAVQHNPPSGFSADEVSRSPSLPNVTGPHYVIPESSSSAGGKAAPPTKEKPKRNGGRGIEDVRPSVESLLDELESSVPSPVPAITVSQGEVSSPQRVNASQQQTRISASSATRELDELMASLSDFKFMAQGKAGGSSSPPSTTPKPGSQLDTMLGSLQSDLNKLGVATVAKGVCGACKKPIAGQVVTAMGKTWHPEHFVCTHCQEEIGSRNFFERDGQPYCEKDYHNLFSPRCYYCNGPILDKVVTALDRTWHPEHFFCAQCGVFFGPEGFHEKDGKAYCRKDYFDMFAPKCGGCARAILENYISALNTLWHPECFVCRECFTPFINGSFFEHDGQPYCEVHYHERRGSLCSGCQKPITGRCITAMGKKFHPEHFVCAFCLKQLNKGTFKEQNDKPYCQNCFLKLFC
UniProt Q00944: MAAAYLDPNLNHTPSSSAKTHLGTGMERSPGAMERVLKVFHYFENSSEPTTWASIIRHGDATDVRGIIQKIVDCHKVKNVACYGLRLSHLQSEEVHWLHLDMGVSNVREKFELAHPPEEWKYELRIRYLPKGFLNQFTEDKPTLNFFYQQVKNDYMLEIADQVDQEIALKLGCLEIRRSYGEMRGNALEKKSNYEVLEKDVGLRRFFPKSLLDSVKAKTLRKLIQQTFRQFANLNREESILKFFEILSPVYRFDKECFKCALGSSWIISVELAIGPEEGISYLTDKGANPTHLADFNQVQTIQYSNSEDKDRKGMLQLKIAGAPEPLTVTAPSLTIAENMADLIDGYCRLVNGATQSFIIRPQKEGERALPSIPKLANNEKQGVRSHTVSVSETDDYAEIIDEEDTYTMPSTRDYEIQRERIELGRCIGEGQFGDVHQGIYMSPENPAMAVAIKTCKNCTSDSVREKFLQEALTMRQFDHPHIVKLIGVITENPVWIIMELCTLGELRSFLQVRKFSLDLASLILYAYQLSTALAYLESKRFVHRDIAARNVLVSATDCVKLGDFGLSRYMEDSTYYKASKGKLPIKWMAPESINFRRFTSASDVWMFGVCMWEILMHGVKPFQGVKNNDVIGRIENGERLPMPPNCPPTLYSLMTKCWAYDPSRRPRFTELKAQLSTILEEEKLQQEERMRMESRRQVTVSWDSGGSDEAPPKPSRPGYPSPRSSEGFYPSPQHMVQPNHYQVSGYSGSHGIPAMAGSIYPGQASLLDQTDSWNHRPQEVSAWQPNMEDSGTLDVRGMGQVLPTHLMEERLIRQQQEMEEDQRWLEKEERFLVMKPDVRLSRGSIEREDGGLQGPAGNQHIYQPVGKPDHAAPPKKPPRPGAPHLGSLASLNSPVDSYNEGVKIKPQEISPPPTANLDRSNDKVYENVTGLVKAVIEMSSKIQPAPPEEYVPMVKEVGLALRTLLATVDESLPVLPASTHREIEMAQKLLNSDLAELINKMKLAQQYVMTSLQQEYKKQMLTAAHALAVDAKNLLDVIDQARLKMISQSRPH

Legend:
Assay in all cases: co-IP
[1] = biological target: T1, GFP-BNIP-2 (human) (UniProt Q12982)
T1 sequence: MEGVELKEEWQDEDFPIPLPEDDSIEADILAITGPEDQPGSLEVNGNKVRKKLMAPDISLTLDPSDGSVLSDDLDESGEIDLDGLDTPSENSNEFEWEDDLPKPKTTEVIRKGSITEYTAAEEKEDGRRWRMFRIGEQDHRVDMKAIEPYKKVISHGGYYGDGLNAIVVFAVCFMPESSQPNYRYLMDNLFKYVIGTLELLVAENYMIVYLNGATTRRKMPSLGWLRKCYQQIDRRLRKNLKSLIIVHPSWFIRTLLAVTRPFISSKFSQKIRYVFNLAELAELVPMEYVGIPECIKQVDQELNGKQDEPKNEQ

[2] = biological target: T2, GFP-BNIP-2-cBCH (human) (UniProt Q12982)
T2 sequence: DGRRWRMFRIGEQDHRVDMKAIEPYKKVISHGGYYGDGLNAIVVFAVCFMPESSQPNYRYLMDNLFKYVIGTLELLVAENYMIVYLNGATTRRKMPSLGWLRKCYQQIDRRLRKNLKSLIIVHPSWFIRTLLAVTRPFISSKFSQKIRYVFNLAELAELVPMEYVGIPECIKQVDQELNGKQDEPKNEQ

[3] = biological target: GFP-paxillin (UniProt P49024)
[4] = biological target: T3, GFP-BNIP-2-N terminal (human) (UniProt Q12982)
T3 sequence: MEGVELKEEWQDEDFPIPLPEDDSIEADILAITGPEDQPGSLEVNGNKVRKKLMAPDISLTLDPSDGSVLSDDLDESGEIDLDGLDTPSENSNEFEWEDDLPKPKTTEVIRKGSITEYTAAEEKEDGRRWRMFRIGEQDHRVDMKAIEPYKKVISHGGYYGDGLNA

[5] = biological target: T4, HA-tagged full-length BNIP-2 (human) (UniProt Q12982)
T4 sequence: T1 sequence

[6] = biological target: T5, FLAG-BNIP-2 (human) (UniProt Q12982)
T5 sequence: T1 sequence

Row | Substance | binding [1] | binding [6] | also measured
1 | mApple-FAK Y397D (from UniProt Q00944 1-1053) | binds | – | –
2 | mApple-FAK full-length (from UniProt Q00944 1-1053) | binds | – | –
3 | mApple-FAK Y397F (from UniProt Q00944 1-1053) | binds weakly | – | –
4 | FLAG-FAK (from UniProt Q00944 1-1053) | binds | – | binding [2]: binds; binding [3]: binds; binding [4]: no binding; binding [5]: binds
5 | mApple-paxillin (from UniProt P49024 1-559) | – | binds | –
6 | GFP-FAK (from UniProt Q00944 1-1053) | – | binds | –
